Data taken from paper PMC11377751.
Results are given in words; binding and its absence hold for the method and conditions named. Binding seen in cells or lysates may run through a third protein. Some binding calls cover weakened binding; strength is not graded here.

Sequences of proteins named here, by UniProt entry; tags and fusion partners are left off.
UniProt Q5TYM5: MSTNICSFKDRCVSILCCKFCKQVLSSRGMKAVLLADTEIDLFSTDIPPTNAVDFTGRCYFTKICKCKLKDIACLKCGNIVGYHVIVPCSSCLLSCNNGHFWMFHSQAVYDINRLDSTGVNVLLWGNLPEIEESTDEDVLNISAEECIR
UniProt Q86X60: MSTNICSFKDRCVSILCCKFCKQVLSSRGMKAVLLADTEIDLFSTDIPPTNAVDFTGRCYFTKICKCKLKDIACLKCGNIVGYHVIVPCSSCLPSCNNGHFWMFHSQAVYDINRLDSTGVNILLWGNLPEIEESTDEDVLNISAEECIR
UniProt Q6L9T8: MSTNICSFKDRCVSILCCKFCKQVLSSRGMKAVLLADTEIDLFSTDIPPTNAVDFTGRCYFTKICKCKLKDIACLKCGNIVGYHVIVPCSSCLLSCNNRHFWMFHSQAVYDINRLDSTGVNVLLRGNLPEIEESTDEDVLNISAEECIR
UniProt H0Y354: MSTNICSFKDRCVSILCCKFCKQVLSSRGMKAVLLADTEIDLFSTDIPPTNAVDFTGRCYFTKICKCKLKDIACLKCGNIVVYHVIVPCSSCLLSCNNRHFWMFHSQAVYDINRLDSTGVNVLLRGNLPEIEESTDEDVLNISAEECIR
UniProt P27694: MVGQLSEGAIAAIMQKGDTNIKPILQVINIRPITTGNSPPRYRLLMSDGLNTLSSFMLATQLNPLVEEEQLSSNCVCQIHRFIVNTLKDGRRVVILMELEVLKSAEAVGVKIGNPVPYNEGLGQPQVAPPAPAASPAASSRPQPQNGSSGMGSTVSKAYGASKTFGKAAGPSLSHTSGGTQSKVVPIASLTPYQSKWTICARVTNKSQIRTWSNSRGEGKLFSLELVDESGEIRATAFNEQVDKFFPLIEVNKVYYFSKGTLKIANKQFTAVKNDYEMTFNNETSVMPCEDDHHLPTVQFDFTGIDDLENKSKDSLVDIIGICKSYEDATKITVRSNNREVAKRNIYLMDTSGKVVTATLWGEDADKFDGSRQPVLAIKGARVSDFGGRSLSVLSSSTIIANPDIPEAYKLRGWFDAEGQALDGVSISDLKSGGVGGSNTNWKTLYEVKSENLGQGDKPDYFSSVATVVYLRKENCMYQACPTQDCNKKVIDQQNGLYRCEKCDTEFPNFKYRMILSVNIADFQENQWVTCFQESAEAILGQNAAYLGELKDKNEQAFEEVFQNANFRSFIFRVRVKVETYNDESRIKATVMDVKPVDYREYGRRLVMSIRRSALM

Key:
GFP-FAM72A (human) = GFP-FAM72A (human) (UniProt Q5TYM5); experiment: pull-down; GFP pulldown from cell extracts of HEK293T cells co-expressing GFP-FAM72A with FLAG-tagged FAM72B, FAM72C or FAM72D
FLAG-FAM72B (human) = FLAG-FAM72B (human) (UniProt Q86X60); experiment: co-IP; FLAG pulldown (anti-FLAG M2 magnetic beads) of high salt cell extracts from HEK293T cells expressing FLAG-FAM72B; immunoblot of eluted immunocomplexes

binding (GFP-FAM72A (human))	binding (FLAG-FAM72B (human))	Substance
binds		FLAG-tagged FAM72D (from UniProt Q6L9T8 1-149)
binds		FLAG-FAM72B (from UniProt Q86X60 1-149)
binds		FLAG-tagged FAM72C (from UniProt H0Y354 1-149)
	binds	RPA1 (from UniProt P27694 1-616)
